Measured values taken from paper PMC10313362.
No constants are given. Whether binding was seen depends on the method and setting. Binding seen in cells or lysates may run through a third protein. Some entries that bind do so weakly or less than the wild type.

Protein sequences, listed by entry. Tags and fused reporters are not part of them.
UniProt P31749: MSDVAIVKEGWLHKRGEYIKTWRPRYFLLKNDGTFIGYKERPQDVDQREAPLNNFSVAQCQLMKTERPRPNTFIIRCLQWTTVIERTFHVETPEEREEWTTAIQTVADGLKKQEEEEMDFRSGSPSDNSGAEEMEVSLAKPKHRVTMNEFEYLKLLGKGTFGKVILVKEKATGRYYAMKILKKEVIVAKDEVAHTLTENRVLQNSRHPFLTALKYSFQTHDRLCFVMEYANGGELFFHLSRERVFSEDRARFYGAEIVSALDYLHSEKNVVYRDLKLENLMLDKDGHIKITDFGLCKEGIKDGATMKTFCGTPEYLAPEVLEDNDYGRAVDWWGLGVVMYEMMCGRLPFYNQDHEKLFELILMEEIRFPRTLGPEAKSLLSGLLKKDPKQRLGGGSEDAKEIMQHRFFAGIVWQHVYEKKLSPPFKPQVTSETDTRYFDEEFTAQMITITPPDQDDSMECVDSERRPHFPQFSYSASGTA

Legend:
[1] = molecular target: T1, S100A11 (in SK-Hep1 cells) (UniProt P31949); assay: co-IP; SK-Hep1 cell lysate (150 mM NaCl, 50 mM Tris pH 7.5, 0.5% NP-40); primary antibody 6-8 h at 4°C, protein A/G magnetic beads, washed with PBST, immunoblot
T1 sequence: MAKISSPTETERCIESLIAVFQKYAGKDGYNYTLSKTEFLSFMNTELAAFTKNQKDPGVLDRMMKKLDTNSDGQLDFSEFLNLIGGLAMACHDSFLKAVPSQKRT

S100A11 = molecular target: T2, S100A11 (UniProt P31949); assay: co-IP; HEK-293 cell lysate (150 mM NaCl, 50 mM Tris pH 7.5, 0.5% NP-40); primary antibody 6-8 h at 4°C, protein A/G magnetic beads, washed with PBST, immunoblot
T2 sequence: T1 sequence

| binding [1] | binding (S100A11) | Substance |
| --- | --- | --- |
| binds |  | AKT1 (in SK-Hep1 cells) (from UniProt P31749 1-480) |
|  | binds | AKT1 full-length protein (aa 1-480) (from UniProt P31749 1-480) |
